For one experiment, the target named is rat ActRIIB-HA (rat) (UniProt P38445). Put plainly: co-IP; COS7 cells transfected with rat ActRIIB-HA and either betaglycan-c-myc or empty pcDNA3, treated 2 h with 100 ng/ml ligand in concentrated media, lysed, anti-HA precipitation, blot with anti-βA polyclonal antibody.
The target of experiment [1] is human activin/inhibin βA-subunit (mature) (human) (UniProt P08476). Put plainly: non-reducing SDS-PAGE and immunoblot of secreted dimers; conditioned media of stably transfected CHO cells, 4-12% SDS-PAGE under non-reducing (and reducing) conditions, detected with anti-βA polyclonal or anti-α-subunit PO23 antibody.
In experiment [2] the target is chicken inhibin α-subunit (mature αC) (chicken) (UniProt P43031). Put plainly: tandem MS-MS of a band from a non-reducing gel; medium of cells expressing the chicken free α-subunit, precipitated with PO23, non-reducing SDS-PAGE, 30 kDa band digested with trypsin.
For experiment [3] the target is unchanged. The experiment can be described thus: non-reducing SDS-PAGE and immunoblot of secreted dimers; conditioned media of stably transfected CHO cells, 4-12% SDS-PAGE under non-reducing (and reducing) conditions, detected with anti-βA polyclonal or anti-α-subunit PO23 antibody.
Experiment [4] deals with human activin/inhibin βA-subunit (mature) (human) (UniProt P08476). The experiment is described as above. This is another data set of the same source.
The target of experiment [5] is chicken inhibin α-subunit (mature αC) (chicken) (UniProt P43031). The experiment can be described thus: immunoprecipitation of [35S]-cysteine-labelled media, non-reducing SDS-PAGE and autoradiography; media of cells labelled 48 h with [35S]-cysteine, precipitated with anti-α-subunit monoclonal PO23 or normal mouse IgG, Protein G Sepharose, 4-12% non-reducing gel.
Experiment [6] has as its target human inhibin α-subunit (mature αC) (human) (UniProt P05111). The experiment is described as above.

The chains behind the UniProt entries cited, without tags or fusion partners. Residues count along the entry.
UniProt P38445, residues 19-513: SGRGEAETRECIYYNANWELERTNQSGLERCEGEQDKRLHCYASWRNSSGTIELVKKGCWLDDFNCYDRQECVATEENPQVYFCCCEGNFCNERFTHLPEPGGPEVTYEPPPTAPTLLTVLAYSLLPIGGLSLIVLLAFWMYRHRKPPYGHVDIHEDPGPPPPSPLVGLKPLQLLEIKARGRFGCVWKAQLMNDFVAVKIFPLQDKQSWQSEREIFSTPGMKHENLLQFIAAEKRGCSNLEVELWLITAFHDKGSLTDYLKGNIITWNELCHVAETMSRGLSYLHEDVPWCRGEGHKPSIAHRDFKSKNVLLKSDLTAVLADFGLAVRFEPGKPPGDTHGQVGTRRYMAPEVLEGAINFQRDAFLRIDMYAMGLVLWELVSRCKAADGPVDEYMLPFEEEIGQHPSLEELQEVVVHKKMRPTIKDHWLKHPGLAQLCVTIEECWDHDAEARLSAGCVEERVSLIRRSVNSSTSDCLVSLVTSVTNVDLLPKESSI
UniProt P08476, residues 311-426: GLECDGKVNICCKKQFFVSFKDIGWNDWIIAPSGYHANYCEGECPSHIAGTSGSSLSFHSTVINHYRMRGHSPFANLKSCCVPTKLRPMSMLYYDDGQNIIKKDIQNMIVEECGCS

Where two headings read alike, the source gives them in different places. No constants are given. Whether binding was seen depends on the method and setting. For some assays here: In cells and extracts the contact can be indirect. Some binding calls cover weakened binding; strength is not graded here.

For “wild type chicken inhibin A (α^Chwt/βA) (from UniProt P43031 217-329; P08476 311-426) (complex)”, the binding result in the experiment with rat ActRIIB-HA (rat) is listed as “binds”.
In the case of “human activin/inhibin βA-subunit (mature) (from UniProt P08476 311-426)”, the binding entry in experiment [1] is on record as “binds”.

B1: chicken inhibin α-subunit (mature αC) (protein, UniProt P43031 217-329)
chain: SAVPWSPAALSLLQRPSEDVAAHTNCRRASLNISFEELGWDNWIVHPSSFVFHYCHGNCAEGHGLSHRLGVQLCCAALPGTMRSLRVRTTSDGGYSFKYETVPNILAQDCTCV
For the molecule B1, the binding entry in experiment [2] is on record as “binds weakly”; in experiment [3], “binds weakly”; in experiment [4], “binds”; in experiment [5], “binds weakly”.

B2: human inhibin α-subunit (mature αC) (protein, UniProt P05111 233-366)
chain: STPLMSWPWSPSALRLLQRPPEEPAAHANCHRVALNISFQELGWERWIVYPPSFIFHYCHGGCGLHIPPNLSLPVPGAPPTPAQPYSLLPGAQPCCAALPGTMRPLHVRTTSDGGYSFKYETVPNLLTQHCACI
For the molecule B2, the binding result is recorded as “binds” in experiment [4] and “no binding” in experiment [6].
